We go through one molecule from paper PMC3464273.

Assay [1] concerns the target TAP-tagged KREPA4 OB-fold (C-terminal), fused to the mitochondrial import signal (T. brucei). Description: TAP-tag affinity purification, first step (TEV eluate), with western blot. In general terms: Immunoblotting shows a protein as a band on a membrane.
Assay [2] addresses TAP-tagged KREPA4 FL minus OB-fold (C-terminal) (T. brucei). Described as above.
Assay [3] deals with TAP-tagged full length KREPA4 (T. brucei). As to the kind of experiment: TAP-tag affinity purification, fi.
Assay [4] has the same target. Description: TAP-tag affinity purification, bo.

These are yes or no findings as the source states them, for the method shown. For some of these results: Binding calls can cover weak binding; strength is not graded here.

B1: KREPA2, endogenous (protein, UniProt A0A3L6L0V2 1-587)
chain: MYRRFFRSAAVKHLGTTSAQCLMRATKYPCGAMCRNASSCHPQTLGYQQRFQSTTDKKFHCSVCKKPFRLEMAAKLHLQQAHGGDGSVEAGPGPGVEASSVNVVSTPVPSPISPVERTFVDEEERRPRRMRPTPKPLHQPDRDIPAAAMEEMLGVWDKIGLNRLEGNFVHSTMVMKVFAAPPDVSEIPLYEHVAPEGENPFDSLDHMTTGTVDATYVGHDAFAEVDLVDPFVAAPDQTLNPFRAGKVRNPFTRISPTQREVVKPLQPPQPKEEPLKAPVTPFGQLPMFGQTREPSASFAAAAVSVQAAANPNEVSSPFAAAVSSSPFVGQVASPFAPAQDVAGSPFEASPCAASSPFVTAGGQETSPFAAPSTPASFGQGSLFPPMGTGAPGFTAITETEQRQQELEHGCPTCGKKFSTFEGAAMHSKSKHGIVLESKKVKDRLNRKGVPDLPAYVPSPVDLSSTSPFGTRSAIGASWAETELIPHAQCVSNITIVGRVLDVSQASENVSHVTVFVEGERSGEEETLTLCCFGEVSQKIRGTLKRNATIFASGTLRLHPVYEASNNKYYVSPVVHVSMPTGTLAVIT
Turning to B1, the binding entry is recorded as “no binding” in assay [1], “no binding” in assay [2], “binds” in assay [3] and “binds” in assay [4].
